In all, about 390,000 compounds went through this assay and about 760 (0.19%) were called active. Inconclusive means that the source gave no clear call. Such entries were picked first, then a sample of the others. Calls follow the shape of the dose curve; as a rule, active = well fitted inhibition curve with a large enough effect; inconclusive = small, poorly fitted or top-dose-only effect; inactive = flat fitted curve, though single readings scatter. A potency beside an inconclusive call is a rough fit, not a confirmed value.
Assay: qHTS for Inhibitors of Vif-A3F Interactions: qHTS; also: nearly all actives have a fitted effect of over 65% in size; as to activity, negative = active: % of control where 0% means no effect
Settings: HeLa A3F-eYFP + Vif (tagged APOBEC3F with the HIV-1 protein that degrades it), YFP fluorescence increase; series mostly up to 46.1 µM; activity, negative = active: at the top concentration
Method in brief: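 Fluorescence increase (Ex 488/Em 500-530) after overnight compound treatment at 37 deg C flags inhibition of Vif-driven A3F-eYFP loss in stable HeLa A3F-eYFP/Vif cells seeded overnight beforehand.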
In the case of `O[C@@H]1CN(Cc2ccc(-n3cccn3)cc2)CC[C@H]1N1CCN(c2ccccc2F)CC1`, the “activity, negative = active” value is reported as inactive: -1.2%.
With `NC(=S)N/N=C/c1ccccc1OC(=O)/C=C/c1ccccc1` the Potency was active: 11.2 µM.
With `CN(C)S(=O)(=O)c1cccc(NC(=S)N/N=C/c2ccc(O)c(O)c2O)c1` the “activity, negative = active” value was inactive: -7.36%.
In the case of `CS(=O)(=O)Nc1ccc(C2=NN(S(=O)(=O)c3ccccc3)C(c3cccs3)C2)cc1` (stereo not drawn), the Potency is reported as active: 22.4 µM.
For `O=C(O)c1cc(/C=C/C(=O)c2cc(F)ccc2O)c2c(c1)COCO2`, the Potency was inconclusive: 14.1 µM [inhibitor, single point].
With `N/C(Cc1ccc(Cl)cc1)=N\OC(=O)Cc1ccc([N+](=O)[O-])cc1` the “activity, negative = active” value was inactive: 6.96%.
For `Cc1ccc2cccc(N=Cc3c(C)[nH]n(-c4ccccc4)c3=O)c2n1`, the Potency was inconclusive: 28.2 µM [inhibitor, single point].
For `CCOC(=O)/C=C1/N(C)c2ccccc2C1(C)C`, the “activity, negative = active” value was inactive: -1.87%.
In the case of `Cc1cccc(Oc2ccc3c(c2)Oc2ccccc2NC3=O)c1`, the Potency is reported as inconclusive: 35.5 µM [inhibitor, single point].
In the case of `Cc1nnc(N2CCOCC2)c2nn(-c3cccc(Cl)c3)c(C)c12`, the Potency is reported as inconclusive: 22.4 µM [inhibitor, partial curve, poor fit].
With `Fc1ccc(-[n+]2nc(Nc3ccccc3)sc2-c2c3ccccc3cc3ccccc23)cc1` the Potency was inconclusive: 22.4 µM [inhibitor, single point].
With `N#Cc1cccc(OC(=O)c2ccc3c(=O)n4c(nc3c2)CCC4)c1` the Potency was inconclusive: 3.16 µM [inhibitor, partial curve, poor fit].
With `O=c1c2ccccc2[nH]c(=S)n1CCCN1CCN(c2ccccc2F)CC1` the Potency was inconclusive: 6.31 µM [inhibitor, single point].
With `O=C1/C(=C/c2ccc(N3CCOCC3)o2)SC(=Nc2ccccc2)N1CCc1c[nH]c2ccccc12` the Potency was inconclusive: 0.631 µM [inhibitor, full curve, poor fit].
With `CCCCn1c(-c2ccccc2)cnc1SCC(=O)NCCc1ccc(OC)c(OC)c1` the “activity, negative = active” value was inactive: 4.76%.
For `CC(C)c1ccccc1NC(=S)NC(C)c1ccccc1` (stereo not drawn), the Potency was inconclusive: 25.1 µM [inhibitor, partial curve, poor fit].
For `O=C(O)Cn1c2ccccc2c2nc3ccccc3nc21`, the Potency was active: 8.91 µM.
In the case of `O=c1ncn(C2CCCCC2)c(=O)[nH]1`, the Potency is reported as inconclusive: 0.891 µM [inhibitor, partial curve, poor fit].
In the case of `Cc1nonc1OC(C)CNc1ccc([N+](=O)[O-])cc1` (stereo not drawn), the “activity, negative = active” value is reported as inactive: -3.94%.
For `Cc1nc2scc(C)n2c(=O)c1S(=O)(=O)Nc1cccc(C(F)(F)F)c1`, the “activity, negative = active” value was inactive: 0.257%.
For `O=Cc1ccccc1OCc1ccc2c(c1)OCO2`, the “activity, negative = active” value was inactive: -0.197%.
In the case of `O=S(=O)(NCCN1CCOCC1)c1cccs1`, the Potency is reported as inconclusive: 2.82 µM [inhibitor, single point].
For `Nc1ccc2nc3c(=O)[nH]c(=S)[nH]c3nc2c1`, the Potency was inconclusive: 35.5 µM [inhibitor, single point].
For `Cc1ccc(-c2ccc(/C=C/C(=O)c3ccccc3)o2)cc1`, the Potency was inconclusive: 31.6 µM [inhibitor, single point].
In the case of `COc1ccccc1C(=O)OCc1cc(=O)n2nc(C(C)C)sc2n1`, the “activity, negative = active” value is reported as inactive: 5.56%.
In the case of `CCOc1ccc(N(CC(=O)NC2CCCCC2)S(=O)(=O)c2ccc(C)cc2)cc1`, the Potency is reported as inconclusive: 28.2 µM [inhibitor, partial curve, poor fit].
With `O=C(NC(=S)N1CCN(c2ccc([N+](=O)[O-])cc2)CC1)c1ccccc1` the Potency was inconclusive: 35.5 µM [inhibitor, single point].
In the case of `COc1cccc(/C=N/NC(=O)c2cc3cc([N+](=O)[O-])ccc3s2)c1O`, the Potency is reported as inconclusive: 6.31 µM [inhibitor, single point].
For `O=C1C(=C(O)c2ccccc2)C(=O)c2ccccc21`, the Potency was inconclusive: 35.5 µM [inhibitor, single point].
For `O=C(N/N=C/C(Cl)=C\c1ccccc1)c1cnccn1`, the Potency was inconclusive: 3.16 µM [inhibitor, partial curve, poor fit].
For `CCCOc1ccc(N2CC(C(=O)NC3=NCCS3)CC2=O)cc1` (stereo not drawn), the Potency was inconclusive: 12.6 µM [inhibitor, partial curve, poor fit].
In the case of `CC(C)N(Cc1ccccc1)C(=O)COC(=O)c1cnccn1`, the Potency is reported as inconclusive: 10 µM [inhibitor, partial curve, poor fit].
For `Cc1cccc(C)c1NC(=S)N/N=C/c1c(Cl)cccc1Cl`, the Potency was inconclusive: 28.2 µM [inhibitor, partial curve, poor fit].
With `COc1ccccc1NC(=O)CON=C(N)CC(=O)NC1CCCCC1` the Potency was inconclusive: 35.5 µM [inhibitor, single point].
For `CCC(C)NC(=O)CN1C(=O)NC2(CCc3ccccc3C2)C1=O` (stereo not drawn), the Potency was inconclusive: 35.5 µM [inhibitor, single point].
With `CN1CCc2c(sc3nc(SCC(=O)N4CCOCC4)nc(N)c23)C1` the “activity, negative = active” value was inactive: -9.9%.
With `O=S(=O)(Nc1nc2ccccc2nc1N1CCN(c2ccccc2)CC1)c1ccc(F)cc1` the Potency was active: 22.4 µM.
With `Cc1ccc(C(=O)OCC(=O)NNC(=O)COc2ccc(Cl)cc2)c(O)c1` the Potency was inconclusive: 10 µM [inhibitor, partial curve, poor fit].
With `CCOc1ccc2[nH]c(=O)c(CN(Cc3cccs3)C(CC)c3nnnn3C(C)(C)CC)cc2c1` (stereo not drawn) the “activity, negative = active” value was inactive: 4.75%.
In the case of `COc1ccc(C(=O)NC(c2ccc(Cl)cc2)c2cc(Cl)c3cccnc3c2O)cc1` (stereo not drawn), the Potency is reported as inconclusive: 25.1 µM [inhibitor, single point].
For `Cc1ccc(-n2nc(C)c(Sc3ccccc3[N+](=O)[O-])c2N)cc1`, the “activity, negative = active” value was inactive: 1.96%.
For `COc1ccc(C(=O)Nc2cc(C(C)=O)c(/C=C/N(C)C)oc2=O)cc1`, the Potency was inconclusive: 22.4 µM [inhibitor, partial curve, poor fit].
In the case of `CCOC(=O)c1cccc(NS(=O)(=O)c2cc3c(cc2C)NC(=O)CO3)c1`, the Potency is reported as inconclusive: 35.5 µM [inhibitor, single point].
With `CCOC(=O)NC(=O)/C(C#N)=C\Nc1sccc1C(=O)OC` the Potency was inconclusive: 3.16 µM [inhibitor, partial curve, poor fit].
For `CCCCn1c(SCC(=O)c2ccc3c(c2)OCCO3)nnc1-c1ccco1`, the Potency was inconclusive: 15.8 µM [inhibitor, single point].
In the case of `CCN(CC)CCCNC(=O)c1ccc2c(Cl)c3c(nc2c1)CCCC3`, the Potency is reported as “inactive”.
With `Cn1c(SCC(=O)Nc2nc3ccccc3s2)ncc(C(=O)Nc2ccc(F)cc2)c1=O` the Potency was inconclusive: 28.2 µM [inhibitor, single point].
In the case of `C=CC[C@@H](CC(=O)N[C@@H](CO)Cc1ccccc1)C(=O)N[C@H](COC(=O)[C@H](CC=C)CC(=O)OC(C)(C)C)Cc1ccccc1`, the Potency is reported as inconclusive: 15.8 µM [inhibitor, single point].
For `Cc1cc(N/N=C/c2ccc(O)cc2O)c2ccccc2n1`, the Potency was inconclusive: 35.5 µM [inhibitor, partial curve, poor fit].
For `CC1(C)Cc2c(sc(NC(=O)c3ccco3)c2C(=O)O)CO1`, the “activity, negative = active” value was inactive: 10.3%.
For `Cc1ccc(N2C(=O)C(CN3CCCC3)C2c2ccccc2)cc1` (stereo not drawn), the Potency was inconclusive: 0.562 µM [inhibitor, full curve, poor fit].
In the case of `CC(=O)Nc1cc2c(cc1[N+](=O)[O-])-c1ccc(F)cc1C2`, the Potency is reported as inconclusive: 35.5 µM [inhibitor, single point].
For `O=C(Nc1nc2c(s1)CCCC2)c1cccs1`, the Potency was inconclusive: 3.55 µM [inhibitor, partial curve, poor fit].
With `COC(=O)C1=C(C)N(Cc2ccccc2)C(=O)N[C@H]1c1ccc(Br)cc1` the “activity, negative = active” value was inactive: 1.66%.
For `CCOc1ccc(/C=N/Nc2ccccn2)cc1OC`, the Potency was inconclusive: 35.5 µM [inhibitor, single point].
With `CCCCCCN1C=CC(=C2C(=O)c3ccccc3C2=O)C=C1` the Potency was inconclusive: 22.4 µM [inhibitor, partial curve, poor fit].
In the case of `COc1ccc(/C=N/Nc2ccc([N+](=O)[O-])cc2S(=O)(=O)N2CCN(C)CC2)cc1`, the Potency is reported as inconclusive: 6.31 µM [inhibitor, single point].
For `COc1cc(-c2nnc(SCC(=O)Oc3ccccc3)o2)cc(OC)c1OC`, the “activity, negative = active” value was inactive: 2.89%.
With `Cc1c(C(=O)NCCNc2ncc(C(F)(F)F)cc2Cl)cccc1[N+](=O)[O-]` the Potency was inconclusive: 35.5 µM [inhibitor, single point].
In the case of `CC(=O)c1cccc(NC(=O)CN2C(=O)c3cccnc3Sc3ccccc32)c1`, the “activity, negative = active” value is reported as inactive: -0.55%.
In the case of `CCN1CCOC(=O)C1CC(=O)Nc1ccc(C(C)=O)cc1` (stereo not drawn), the “activity, negative = active” value is reported as inactive: -0.158%.
In the case of `CSCCC(NS(=O)(=O)c1cccs1)C(=O)Nc1ccc(C)c(Cl)c1` (stereo not drawn), the “activity, negative = active” value is reported as inactive: 0.355%.
In the case of `CCC(C(=O)Nc1ccccc1F)n1nc(C)c2c(C)n(-c3ccccc3)nc2c1=O` (stereo not drawn), the Potency is reported as inconclusive: 1.12 µM [inhibitor, full curve, poor fit].
For `CCN(CC(=O)NCc1cccs1)C(=O)c1ccc(C)o1`, the “activity, negative = active” value was inactive: -2.86%.
With `Fc1ccc(-c2nnc(-c3ccc4ccccc4c3)o2)cc1` the Potency was inconclusive: 35.5 µM [inhibitor, single point].
With `Cc1ccc(C)n1-c1cccc(C(=O)Nc2ccccc2)c1` the Potency was inconclusive: 35.5 µM [inhibitor, single point].
With `CCOc1ccc2nc(SCC(=O)N3c4ccccc4Sc4ccccc43)c(C#N)cc2c1` the Potency was inconclusive: 35.5 µM [inhibitor, single point].
For `O=C(C[C@H]1C[C@H](C(=O)N2CCOCC2)[C@@]2(CCC3CCCC3)c3[nH]c4cc(-c5ccco5)ccc4c3CCN2C1=O)NCCC1=CCCCC1`, the “activity, negative = active” value was inactive: 7.05%.

From PubChem BioAssay AID602313 (National Center for Advancing Translational Sciences (NCATS), 2012)
Potency is read from the fitted curve at half-maximal effect.
